Values joined by “and” are separate entries in the source; they are usually repeats but may differ in a detail not shown here. Equal entries are not always repeated. The list shows a part of the results. Each value is one well over the wells without odorant, computed here; the data are noisy.

What all share (test): odorant receptor activation (CRE luciferase / Renilla) (fold of no-odor wells); higher = more activation
What all share (settings): 100 µM

Assay [1] has as its system OR10C1 clone 1065.
In assay [2] the test system is OR10G3 S73G clone 1272.
Assay [3] concerns OR10G4 A9V/M134V/V195E/R235G/K295Q clone 1119.
Assay [4] concerns OR10G6 clone 1108.
For assay [5], the system named is OR10G7 clone 1589.
Assay [6] has as its system OR10G8 clone 1396.
Assay [7] concerns OR10G9 A90T/M134V clone 1192.
Assay [8] has as its system OR10H1 clone 1291.
The subject of assay [9] is OR10H2 L40Q clone 1461.
Assay [10] concerns OR10H3 clone 1525.
For assay [11], the system named is OR10H5 A224D clone 1294.
Assay [12] has as its system OR10J1 clone 1711.
For assay [13], the system named is OR10J3 clone 1458.
Assay [14] concerns OR10J5 R233W clone 1410.
Assay [15] relates to OR10J5 clone 1037.
For assay [16], the system named is OR10K1 clone 1024.
For assay [17], the system named is OR10K2 clone 1040.
The test system of assay [18] is OR10P1 clone 1254.
The test system of assay [19] is OR10Q1 clone 1202.
In assay [20] the test system is OR10R2 A191T/E216G/L239F clone 1304.

In the case of `C=CCSCC=C` [diallyl sulfide], the odorant receptor activation in [1] was 1.2; in assay [2], 1.06; in assay [3], 1.22; in assay [4], 0.943; in assay [5], 0.573; in [6], 1.21. In addition, the odorant receptor activation in assay [7] is 0.987; in assay [8] it was 0.772; in assay [9] it was 1.46; in [10] it was 1.44; in assay [11], 1.11; in assay [12] it was 0.6. The odorant receptor activation in assay [13] amounted to 1.02; in assay [14], 1.02; in [15], 0.832; in [16], 1.31; in [17] it was 1.03; in assay [18], 0.938. The odorant receptor activation in assay [19] turned out to be 0.942; in assay [20], 0.978.
Consider `CCCCCOC(C)=O` [n-amyl acetate], for which the odorant receptor activation worked out at 1.19 in assay [1]; 0.518 in [2]; 1.12 in assay [3]; 2.06 in assay [4]; 1.15 in assay [5]; 0.81 in assay [6]. Besides, the odorant receptor activation in assay [7] was 0.632; in assay [8], 0.677; in [9], 0.611 and 0.943; in [10] it was 1.43 and 0.749; in assay [11] it was 0.518; in [12] it was 0.867. Moreover, the odorant receptor activation in [13] turned out to be 1.12; in [14], 0.681; in assay [15], 1.01; in assay [16], 1.72; in [17] it was 1.56; in assay [18] it was 0.526. Also, the odorant receptor activation was determined as 0.607 in assay [19] and 0.643 in assay [20].
In the case of `CC(=O)C(C)=O` [diacetyl], the odorant receptor activation came out at 1.28 in assay [1]; 1.39 in assay [2]; 1.23 in assay [3]; 0.975 in [4]; 0.336 in [5]; 1.2 in [6]. Moreover, the odorant receptor activation turned out to be 0.875 in [7]; 0.943 in assay [8]; 1.33 in [9]; 1.61 in assay [10]; 1.15 in assay [11]; 0.597 in assay [12]. The odorant receptor activation in assay [13] turned out to be 0.984; in assay [14], 0.983; in assay [15], 0.973; in assay [16] it was 1.46; in assay [17], 1.07; in [18], 1.14. The odorant receptor activation was found to be 1.17 in [19] and 1.3 in [20].
With `CCCCCCOC(=O)CCC` [hexyl butyrate], the odorant receptor activation is 1.12 in assay [1]; 1.25 and 0.843 in assay [2]; 0.863 in [3]; 1.02 in [4]; 0.753 in assay [5]; 0.684 in assay [6]. In addition, the odorant receptor activation in assay [7] was 0.713; in [8] it was 1.11 and 0.901; in assay [9], 0.759 and 1.01; in assay [10] it was 0.988 and 0.874; in assay [11], 1.26 and 1.12; in [12], 0.756. Besides, the odorant receptor activation is 0.935 in [13]; 1.03 in assay [14]; 1.56 in assay [15]; 1.18 in assay [16]; 0.518 in assay [17]; 0.927 and 1.67 in assay [18]. In addition, the odorant receptor activation is 1.11 in [19]; 1.04 and 0.529 in assay [20].
Turning to `CC1=CCC(C(C)(C)O)CC1` (stereo not given) [terpineol], the odorant receptor activation in [1] was determined as 0.823; in [2], 0.84; in assay [3] it was 1.05; in assay [4], 1.04; in [5], 1.21; in [6], 1.21. In addition, the odorant receptor activation in assay [7] was 1.04; in assay [8] it was 0.981; in assay [9], 0.627; in assay [10], 0.873; in [11], 0.843; in assay [12] it was 1.02. Also, the odorant receptor activation was 0.721 in assay [13]; 1.12 in assay [14]; 1.06 in [15]; 0.963 in [16]; 1.07 in assay [17]; 0.981 in [18]. For the same molecule, the odorant receptor activation in assay [19] turned out to be 1.01; in [20], 0.839.
`CCC1(O)C2(C)CCC(C2)C1(C)C` (stereo not given) [2-ethylfenchol]: the odorant receptor activation in assay [1] amounted to 3.17; in assay [2], 1.32; in [3], 1.28; in [4] it was 33.2; in assay [5] it was 4.58; in assay [6] it was 0.656. Further, the odorant receptor activation worked out at 0.668 in [7]; 0.657 in assay [8]; 0.999 in assay [9]; 1.42 in assay [10]; 0.553 in assay [11]; 0.701 in assay [12]. For the same molecule, the odorant receptor activation came out at 0.746 in assay [13]; 0.636 in assay [14]; 3.03 in assay [15]; 3.58 in assay [16]; 2.35 in assay [17]; 1.03 in assay [18]. The odorant receptor activation came out at 1.52 in assay [19] and 0.771 in [20].
Turning to `O=C1CCCCCCCCCCCCCCO1` [pentadecalactone], the odorant receptor activation in [1] was 0.951; in [2] it was 0.803; in assay [3] it was 0.91; in [4], 0.809; in assay [5] it was 0.865; in [6] it was 1.2. Further, the odorant receptor activation in assay [7] came to 0.65; in [8], 0.915; in assay [9] it was 0.891; in assay [10], 0.681; in assay [11] it was 0.847; in assay [12], 0.851. The odorant receptor activation in assay [13] turned out to be 0.973; in assay [14] it was 1.4; in assay [15], 1.02; in assay [16] it was 0.749; in assay [17], 1.08; in assay [18] it was 0.657. The odorant receptor activation in [19] was determined as 0.701; in [20], 0.703.
